These results are taken from article PMC4128046, “Effect of a toggle switch mutation in TM6 of the human adenosine A3 receptor on Gi protein-dependent signalling and Gi-independent receptor internalization” (British Journal of Pharmacology, 2014).

Where a chain is given by its changes, count along the chain named. No constants are given. Whether binding was seen depends on the method and setting. Binding seen in cells or lysates may run through a third protein. Some binding calls cover weakened binding; strength is not graded here. Sequences can lack the tags named with a protein.

Assay [1] deals with T1, human adenosine A3 receptor W243F (W6.48F) fused to the C-terminal fragment of venus YFP (A3 W243F-vYc) (human) (UniProt P0DMS8).
T1 sequence: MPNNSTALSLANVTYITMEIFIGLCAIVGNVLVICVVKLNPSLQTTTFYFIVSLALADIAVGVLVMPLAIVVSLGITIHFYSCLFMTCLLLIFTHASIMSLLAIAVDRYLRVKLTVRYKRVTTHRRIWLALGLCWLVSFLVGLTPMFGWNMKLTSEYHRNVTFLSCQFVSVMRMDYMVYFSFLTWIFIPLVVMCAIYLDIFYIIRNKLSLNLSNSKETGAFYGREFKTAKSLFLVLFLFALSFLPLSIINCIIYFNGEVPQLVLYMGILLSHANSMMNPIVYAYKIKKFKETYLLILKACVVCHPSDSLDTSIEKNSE
Description: split reporter; live-cell confocal imaging (Zeiss 710) of stable CHO cells co-expressing receptor-vYc and β-arrestin2-vYnL; no agonist (control), or 10 μM NECA or 10 μM HEMADO for 60 min at 37°C, in HBSS.

Assay [2] addresses T2, human adenosine A3 receptor fused to the C-terminal fragment of venus YFP (A3-vYc) (human) (UniProt P0DMS8).
T2 sequence: T1 sequence with F243W
Described as above.

Turning to “β-arrestin2 fused to the N-terminal fragment of venus YFP (β-arrestin2-vYnL) (from UniProt P32121 1-409)”, the binding result in assay [1] and in assay [2] was “binds” each time.
